In paper PMC10524267:
These are yes or no findings as the source states them, for the method shown. Some entries that bind do so weakly or less than the wild type. Tags and fused reporters may be left off the sequences shown.

Target: T1, mouse CX3CR1 on transfected Jurkat cells (mouse) (UniProt Q9Z0D9)
T1 sequence: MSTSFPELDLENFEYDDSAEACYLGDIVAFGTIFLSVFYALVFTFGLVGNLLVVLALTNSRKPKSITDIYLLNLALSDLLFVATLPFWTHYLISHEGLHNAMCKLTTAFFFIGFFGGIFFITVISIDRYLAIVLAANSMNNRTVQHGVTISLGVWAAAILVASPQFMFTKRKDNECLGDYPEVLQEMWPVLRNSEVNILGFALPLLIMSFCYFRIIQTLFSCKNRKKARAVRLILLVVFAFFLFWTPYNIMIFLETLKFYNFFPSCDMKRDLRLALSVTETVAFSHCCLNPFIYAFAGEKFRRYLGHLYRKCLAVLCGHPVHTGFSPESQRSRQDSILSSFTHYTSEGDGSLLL
Experiment: flow cytometry on cells; Jurkat-mCX3CR1 cells incubated with anti-CX3CR1 mAb hybridoma supernatant or isotype control for 30 min, then CX3CL1-hFc at 2 µg/ml; bound CX3CL1-Fc detected with goat anti-human IgG-PE; only the binder purified

B1: CX3CL1-human IgG1 Fc fusion protein (Fc fusion, UniProt O35188 25-336)
chain: QHLGMTKCEIMCDKMTSRIPVALLIRYQLNQESCGKRAIVLETTQHRRFCADPKEKWVQDAMKHLDHQAAALTKNGGKFEKRVDNVTPGITLATRGLSPSALTKPESATLEDLALELTTISQEARGTMGTSQEPPAAVTGSSLSTSEAQDAGLTAKPQSIGSFEAADISTTVWPSPAVYQSGSSSWAEEKATESPSTTAPSPQVSTTSPSTPEENVGSEGQPPWVQGQDLSPEKSLGSEEINPVHTDNFQERGPGNTVHPSVAPISSEETPSPELVASGSQAPKIEEPIHATADPQKLSVLITPVPDTQAAT
For B1, the binding was “binds”.
